Assay results taken from publication doi:10.1101/2023.06.21.546019.

By UniProt entry, the sequences of proteins in these tests, tags left out. Residues count along the entry.
UniProt P63166, residues 1-97: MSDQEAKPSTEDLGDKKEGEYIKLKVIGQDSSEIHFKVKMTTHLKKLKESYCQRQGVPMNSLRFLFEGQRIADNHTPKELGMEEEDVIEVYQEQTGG
UniProt P52332: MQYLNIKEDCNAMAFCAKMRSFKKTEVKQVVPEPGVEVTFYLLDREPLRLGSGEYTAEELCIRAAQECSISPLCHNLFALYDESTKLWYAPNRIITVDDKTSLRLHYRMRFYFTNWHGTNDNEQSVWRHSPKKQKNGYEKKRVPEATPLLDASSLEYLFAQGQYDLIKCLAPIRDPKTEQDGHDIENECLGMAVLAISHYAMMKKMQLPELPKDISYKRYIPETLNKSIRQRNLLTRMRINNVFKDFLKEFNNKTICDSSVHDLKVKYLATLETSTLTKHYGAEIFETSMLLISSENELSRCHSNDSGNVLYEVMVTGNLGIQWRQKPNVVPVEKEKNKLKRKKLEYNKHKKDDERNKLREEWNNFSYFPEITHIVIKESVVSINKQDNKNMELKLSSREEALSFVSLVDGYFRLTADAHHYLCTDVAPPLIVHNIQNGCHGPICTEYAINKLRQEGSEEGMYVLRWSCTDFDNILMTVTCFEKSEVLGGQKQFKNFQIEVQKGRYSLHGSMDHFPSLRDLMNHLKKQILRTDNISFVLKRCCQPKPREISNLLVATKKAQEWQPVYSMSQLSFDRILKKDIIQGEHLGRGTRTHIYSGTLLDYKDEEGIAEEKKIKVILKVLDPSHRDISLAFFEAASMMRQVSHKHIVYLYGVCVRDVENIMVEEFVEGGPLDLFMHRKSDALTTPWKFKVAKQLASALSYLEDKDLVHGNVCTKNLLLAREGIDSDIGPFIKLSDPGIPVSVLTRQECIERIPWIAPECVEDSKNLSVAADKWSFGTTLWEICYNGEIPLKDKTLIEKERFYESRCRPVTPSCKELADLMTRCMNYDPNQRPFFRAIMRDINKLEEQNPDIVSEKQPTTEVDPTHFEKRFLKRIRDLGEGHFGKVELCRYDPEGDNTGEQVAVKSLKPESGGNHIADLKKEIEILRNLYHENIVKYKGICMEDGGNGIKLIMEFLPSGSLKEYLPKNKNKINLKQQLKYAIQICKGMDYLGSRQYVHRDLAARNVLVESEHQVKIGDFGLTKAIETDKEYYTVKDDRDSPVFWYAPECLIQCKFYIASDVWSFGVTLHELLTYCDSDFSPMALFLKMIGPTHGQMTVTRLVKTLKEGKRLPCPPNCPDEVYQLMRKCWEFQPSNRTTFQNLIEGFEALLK

Columns and labels:
[1] = biological target: T1, SENP1 (Sentrin-specific protease 1) (mouse (endogenous in primary cardiomyocytes)) (UniProt P59110); test: affinity purification with mass spectrometry
T1 sequence: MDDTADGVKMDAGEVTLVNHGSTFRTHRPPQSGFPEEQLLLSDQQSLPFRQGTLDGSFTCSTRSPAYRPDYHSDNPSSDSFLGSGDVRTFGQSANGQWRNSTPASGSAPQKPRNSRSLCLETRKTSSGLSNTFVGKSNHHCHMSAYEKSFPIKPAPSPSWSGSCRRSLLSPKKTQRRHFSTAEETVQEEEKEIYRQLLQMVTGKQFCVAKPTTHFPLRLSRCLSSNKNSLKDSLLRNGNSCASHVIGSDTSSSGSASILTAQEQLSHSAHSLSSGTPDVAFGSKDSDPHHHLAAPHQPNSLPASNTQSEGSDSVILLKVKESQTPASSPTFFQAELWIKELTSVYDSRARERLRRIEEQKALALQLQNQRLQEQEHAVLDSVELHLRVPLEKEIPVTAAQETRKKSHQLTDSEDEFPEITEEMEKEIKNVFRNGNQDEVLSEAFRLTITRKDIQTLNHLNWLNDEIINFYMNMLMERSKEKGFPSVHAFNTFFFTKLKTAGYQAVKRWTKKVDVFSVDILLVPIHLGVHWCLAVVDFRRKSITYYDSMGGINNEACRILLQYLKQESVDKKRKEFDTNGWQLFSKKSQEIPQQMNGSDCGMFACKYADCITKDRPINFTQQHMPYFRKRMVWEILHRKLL

[2] = biological target: SUMO1 (mouse (endogenous in primary cardiomyocytes)) (UniProt P63166); test: affinity purification with mass spectrometry

Row | binding [1] | binding [2] | Substance
1 | no binding | no binding | EGFR (from UniProt Q01279 25-1210) (receptor)
2 | no binding | – | JAK1 (from UniProt P52332 1-1153) (enzyme)

These are yes or no findings as the source states them, for the method shown. Binding seen in cells or lysates may run through a third protein. A yes stands for co-enrichment or nearness to the bait. Other partners may have been found. A no says only that the protein was not detected with the bait.
